Test results as given in US10174312B2 (priority 2014, dated 2019).
Starred links: 1 amine or outer side, 2 acyl side, 3 side chain; linkers in the order of their positions; H or OH if unused. Positions of bridges follow the written chain, without caps; N, C: chain ends. Non-standard residues stand in square brackets, D forms with d. Residues, ends and D or L forms follow the SMILES beside them. Chains are numbered I, II in the order given. Actinocin(9to1) = Cc1c2oc3c(C)ccc(C(=O)[*:1])c3nc-2c(C(=O)[*:2])c(N)c1=O; NMeV = CN[C@H](C(=O)O)C(C)C; Sar = CNCC(=O)O

Each molecule was assayed on S. cerevisiae heterozygous deletion strain library (assay: S. cerevisiae chemical-genetic profile compendium compared for ecDT screening). Details: not given.

`O=C(CCCN1CCC(O)(c2ccc(Cl)cc2)CC1)c1ccc(F)cc1` [Haloperidol] was tested. Which “tentative drug target genes, Diverged” value did it give?
The value was 113.

And the “tentative drug target genes, No Ortholog” value?
The value was 46.

Same assay, conditions: S. cerevisiae; number of genes

Which results are given for `O=c1[nH]cc(F)c(=O)[nH]1` [5-Fluorouracil]?
tentative drug target genes, Conserved: 2; tentative drug target genes, Diverged: 316; tentative drug target genes, No Ortholog: 143

How did the “tentative drug target genes, Conserved” value turn out when `Cc1c2oc3c(C)ccc(C(=O)N[C@@H]4C(=O)N[C@H](C(C)C)C(=O)N5CCC[C@H]5C(=O)N(C)CC(=O)N(C)[C@@H](C(C)C)C(=O)O[C@@H]4C)c3nc-2c(C(=O)N[C@@H]2C(=O)N[C@H](C(C)C)C(=O)N3CCC[C@H]3C(=O)N(C)CC(=O)N(C)[C@@H](C(C)C)C(=O)O[C@@H]2C)c(N)c1=O` [Actinomycin D] (I: T[dV]P[Sar][NMeV] / II: T[dV]P[Sar][NMeV]; ester I:1-I:C, II:1-II:C; linker I:N-II:N via Actinocin(9to1)) was run?
Its value is 41.

And the “tentative drug target genes, Diverged” value?
Its value is 340.

And the “tentative drug target genes, No Ortholog” value?
Its value is 196.

Which results are given for `Clc1ccccc1C(c1ccccc1)(c1ccccc1)n1ccnc1` [Clotrimazole]?
tentative drug target genes, Conserved: 11; tentative drug target genes, Diverged: 342; tentative drug target genes, No Ortholog: 185

How did the “tentative drug target genes, Conserved” value turn out when `COc1cccc2c1C(=O)c1c(O)c3c(c(O)c1C2=O)C[C@@](O)(C(=O)CO)C[C@@H]3O[C@H]1C[C@H](N)[C@H](O)[C@H](C)O1` [Doxorubicin] was run?
Its value is 4.

And the “tentative drug target genes, Diverged” value?
The value was 293.

And the “tentative drug target genes, No Ortholog” value?
The value was 143.

What does the source list for `CCCCOc1ccc(C(=O)CCN2CCCCC2)cc1` [Dyclonine]?
tentative drug target genes, Conserved: 10; tentative drug target genes, Diverged: 331; tentative drug target genes, No Ortholog: 144

For `CC[C@H]1OC(=O)[C@H](C)[C@@H](O[C@H]2C[C@@](C)(OC)[C@@H](O)[C@H](C)O2)[C@H](C)[C@@H](O[C@@H]2O[C@H](C)C[C@H](N(C)C)[C@H]2O)[C@](C)(O)C[C@@H](C)C(=O)[C@H](C)[C@@H](O)[C@]1(C)O` [Erythromycin], which “tentative drug target genes, Conserved” value is on record?
The value was 1.

And the “tentative drug target genes, Diverged” value?
The value was 25.

And the “tentative drug target genes, No Ortholog” value?
The value was 16.

`O=C(CCCN1CCC(O)(c2ccc(Cl)cc2)CC1)c1ccc(F)cc1` [Haloperidol] was tested. Which “tentative drug target genes, Conserved” value did it give?
The value was 6.

With `CN(Cc1cnc2nc(N)nc(N)c2n1)c1ccc(C(=O)N[C@@H](CCC(=O)O)C(=O)O)cc1` [Methotrexate] as the molecule, how does the “tentative drug target genes, Conserved” value read?
Its value is 4.

And the “tentative drug target genes, Diverged” value?
The value was 1218.

And the “tentative drug target genes, No Ortholog” value?
The value was 603.

Which “tentative drug target genes, Conserved” value does the source give for `CC(=O)[C@H]1CC[C@H]2[C@@H]3CCC4=CC(=O)CC[C@]4(C)[C@H]3CC[C@]12C` [Progesterone] here?
Its value is 1.

What about the “tentative drug target genes, Diverged” value of the same molecule?
The value was 39.

And the “tentative drug target genes, No Ortholog” value?
Its value is 17.

Which “tentative drug target genes, Conserved” value does the source give for `CN(C/C=C/C#CC(C)(C)C)Cc1cccc2ccccc12` [Terbinafine] here?
The value was 4.

And the “tentative drug target genes, Diverged” value?
Its value is 51.

What about the “tentative drug target genes, No Ortholog” value of the same molecule?
Its value is 23.

What does the source list for Tunicamycin?
tentative drug target genes, Conserved: 2; tentative drug target genes, Diverged: 77; tentative drug target genes, No Ortholog: 48
